Drawing on publication PMC5378395, this text covers binding for nine substances.

Amino acid sequences for entries named in this document (tags omitted). A change or cut given only in a name is not applied to a line headed by its entry. Residues count along the entry.
UniProt P51451, residues 58-118: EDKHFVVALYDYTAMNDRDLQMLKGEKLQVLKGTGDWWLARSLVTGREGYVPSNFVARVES
UniProt P35991: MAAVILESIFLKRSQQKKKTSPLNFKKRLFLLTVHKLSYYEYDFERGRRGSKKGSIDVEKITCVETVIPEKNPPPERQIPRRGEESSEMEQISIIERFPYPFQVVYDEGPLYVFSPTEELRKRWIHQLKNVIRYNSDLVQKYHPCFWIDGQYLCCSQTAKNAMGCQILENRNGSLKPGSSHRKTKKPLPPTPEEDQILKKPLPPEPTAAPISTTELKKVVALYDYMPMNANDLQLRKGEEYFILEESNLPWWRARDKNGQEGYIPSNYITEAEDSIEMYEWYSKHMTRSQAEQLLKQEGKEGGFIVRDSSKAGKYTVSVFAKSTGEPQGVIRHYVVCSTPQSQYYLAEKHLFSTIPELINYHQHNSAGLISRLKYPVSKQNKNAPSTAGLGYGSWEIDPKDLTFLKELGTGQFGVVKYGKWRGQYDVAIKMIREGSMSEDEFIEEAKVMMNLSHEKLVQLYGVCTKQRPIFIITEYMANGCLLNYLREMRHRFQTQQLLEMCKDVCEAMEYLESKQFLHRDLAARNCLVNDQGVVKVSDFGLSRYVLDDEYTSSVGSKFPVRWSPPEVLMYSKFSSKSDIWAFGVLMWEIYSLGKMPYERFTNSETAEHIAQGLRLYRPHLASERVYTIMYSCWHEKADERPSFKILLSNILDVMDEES
UniProt Q06187: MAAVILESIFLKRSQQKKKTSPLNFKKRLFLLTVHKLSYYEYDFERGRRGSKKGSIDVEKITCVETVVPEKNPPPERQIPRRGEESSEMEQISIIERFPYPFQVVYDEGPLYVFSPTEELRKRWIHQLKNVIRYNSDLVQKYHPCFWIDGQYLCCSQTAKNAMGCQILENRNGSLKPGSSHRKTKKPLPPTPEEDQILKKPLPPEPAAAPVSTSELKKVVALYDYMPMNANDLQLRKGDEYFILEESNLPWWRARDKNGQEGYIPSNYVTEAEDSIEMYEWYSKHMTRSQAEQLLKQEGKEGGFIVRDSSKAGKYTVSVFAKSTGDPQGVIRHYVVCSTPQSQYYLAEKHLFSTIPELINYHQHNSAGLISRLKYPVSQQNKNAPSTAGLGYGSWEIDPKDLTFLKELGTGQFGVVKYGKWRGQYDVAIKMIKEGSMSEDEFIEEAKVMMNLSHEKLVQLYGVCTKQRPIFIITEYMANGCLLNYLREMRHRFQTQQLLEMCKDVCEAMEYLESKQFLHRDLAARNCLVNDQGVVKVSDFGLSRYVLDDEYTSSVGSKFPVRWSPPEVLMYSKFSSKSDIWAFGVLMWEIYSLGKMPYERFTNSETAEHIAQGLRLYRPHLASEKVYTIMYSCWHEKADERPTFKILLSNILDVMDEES
UniProt P07948, residues 63-123: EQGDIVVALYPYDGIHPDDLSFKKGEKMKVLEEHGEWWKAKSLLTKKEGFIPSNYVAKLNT
UniProt P25911: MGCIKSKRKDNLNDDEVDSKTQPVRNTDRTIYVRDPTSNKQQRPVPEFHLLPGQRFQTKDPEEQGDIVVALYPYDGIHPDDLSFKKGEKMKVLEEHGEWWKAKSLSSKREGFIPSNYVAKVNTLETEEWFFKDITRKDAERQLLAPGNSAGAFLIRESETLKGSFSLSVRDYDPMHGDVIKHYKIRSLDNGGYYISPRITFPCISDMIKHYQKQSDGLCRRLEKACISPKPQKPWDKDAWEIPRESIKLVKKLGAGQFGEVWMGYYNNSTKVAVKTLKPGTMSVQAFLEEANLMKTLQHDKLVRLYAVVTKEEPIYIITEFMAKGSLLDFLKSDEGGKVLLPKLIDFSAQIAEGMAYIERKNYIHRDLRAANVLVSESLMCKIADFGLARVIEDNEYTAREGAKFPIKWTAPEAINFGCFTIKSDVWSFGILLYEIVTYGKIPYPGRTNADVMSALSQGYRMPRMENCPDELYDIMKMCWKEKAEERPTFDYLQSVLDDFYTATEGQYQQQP
UniProt Q13882, residues 8-72: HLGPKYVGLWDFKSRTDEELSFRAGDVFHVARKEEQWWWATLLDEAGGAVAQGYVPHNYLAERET
UniProt P42680, residues 179-239: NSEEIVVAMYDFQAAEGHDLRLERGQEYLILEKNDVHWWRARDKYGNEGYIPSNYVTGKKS

For experiment [1], the target named is commercially available recombinant ANKRD54 (UniProt Q6NXT1). Briefly: ELISA; phage-ELISA; commercially available recombinant ANKRD54 adhered to plastic; SH3 phage dilutions 1:10 to 1:160; data not shown; only the target purified.
Experiment [2] deals with ANKRD54 wild-type with biotinylation target-domain (pEBB-pp-ANKRD54) (UniProt Q6NXT1). Briefly: phage display bio-panning; biotinylated ANKRD54 from transfected HEK 293T lysate immobilized on M-280 streptavidin beads, incubated with phages of a library of all 296 human SH3 domains; retained clones sequenced; three experiments; only the target purified.
Experiment [3] shares this target. Briefly: pull-down; biotinylated ANKRD54-wt or Δ3 from transfected Cos7 cells on streptavidin magnetic beads, incubated with whole cell lysates of wt and Btk-KO primary mouse spleen cells; western blot (Fig 4); only the target purified.
In experiment [4] the target is T1, ANKRD54-Δ3 deletion mutant with biotinylation target-domain (UniProt Q6NXT1).
T1 sequence (chain, biotin on the single acceptor lysine of the BTD): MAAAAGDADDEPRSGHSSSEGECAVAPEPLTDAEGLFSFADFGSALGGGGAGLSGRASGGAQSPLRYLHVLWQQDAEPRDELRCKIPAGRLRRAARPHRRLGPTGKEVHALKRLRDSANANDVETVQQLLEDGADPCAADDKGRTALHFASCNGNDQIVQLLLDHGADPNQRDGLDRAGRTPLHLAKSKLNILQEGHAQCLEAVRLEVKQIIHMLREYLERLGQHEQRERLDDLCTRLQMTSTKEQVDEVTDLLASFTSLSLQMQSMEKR
Briefly: co-IP; Namalwa B-cells electroporated with ANKRD54-BTD wt or Δ3; precipitation with streptavidin beads; blot for endogenous BTK (Fig 2A).

Experiment [5] addresses ANKRD54 wild-type with biotinylation target-domain (pEBB-pp-ANKRD54) (UniProt Q6NXT1). The experiment is described as above.
Experiment [6] deals with T1, ANKRD54-Δ3 deletion mutant with biotinylation target-domain. Description: pull-down; streptavidin-biotin complexes of ANKRD54-BTD wt or Δ3 from transiently transfected Cos7 cells, incubated with Namalwa B-cell lysate; western blot (Fig 2B); only the target purified.
Experiment [7] concerns the target ANKRD54 wild-type with biotinylation target-domain (pEBB-pp-ANKRD54) (UniProt Q6NXT1). The experiment is described as above.
For experiment [8] the target is unchanged. Briefly: co-IP; immunoprecipitates of exogenous proteins from co-transfected Cos7 cells; told only in the discussion.
For experiment [9] the target is unchanged. Description: pull-down; ANKRD54-BTD-wt and BTK mutants transfected separately into Cos7 cells; ANKRD54 enriched on streptavidin beads, then incubated with each BTK lysate; immunoblot (Fig 6); only the target purified.

Results are given in words; binding and its absence hold for the method and conditions named. For some assays here: Binding seen in cells or lysates may run through a third protein. Some entries that bind do so weakly or less than the wild type.

As for “BLK SH3 domain displayed on phage (from UniProt P51451 58-118) (domain or fragment)”, the binding result in [1] is “binds weakly”; in experiment [2] it was “binds”.

With “BTK, endogenous in primary mouse spleen cells (from UniProt P35991 1-659)”, the binding entry in [3] was “binds”.

On to “BTK-SH3 domain displayed on phage (from UniProt Q06187 214-274) (domain or fragment)”, for which the binding entry in [1] is “binds weakly”; in experiment [2], “binds”.

On to “Bruton’s Tyrosine Kinase (BTK), endogenous in Namalwa B-cells (from UniProt Q06187 1-659)”, for which the binding entry was “no binding” in [4], “binds” in [5], “no binding” in experiment [6] and “binds” in experiment [7].

With “LYN SH3 domain displayed on phage (from UniProt P07948 63-123) (domain or fragment)”, the binding result was “binds weakly” in [1] and “binds” in [2].

As for “LYN, endogenous in primary mouse spleen cells (from UniProt P25911 1-512)”, in [3], the binding entry is “binds weakly”.

Turning to “PTK6 SH3 domain displayed on phage (from UniProt Q13882 8-72) (domain or fragment)”, the binding result in experiment [2] is “binds”.

Regarding “TEC SH3 domain displayed on phage (from UniProt P42680 179-239) (domain or fragment)”, the binding result was “binds weakly” in experiment [1] and “binds” in [2].

Turning to “wild-type BTK expressed in Cos7 cells (from UniProt Q06187 1-659)”, the binding result in experiment [8] and in [9] was “binds” throughout.
